In article PMC12273631:
These are yes or no findings as the source states them, for the method shown. Binding seen in cells or lysates may run through a third protein. Binding calls can cover weak binding; strength is not graded here. Sequences can lack the tags named with a protein.

Molecular target: HaloTag::3xFLAG::TEV::OOPS-1A (C. elegans)
Experiment: pull-down; tagged OOPS-1 and SPE-11 co-expressed in E. coli; lysate passed in turn over ANTI-FLAG M2 gel (3x FLAG peptide elution), HaloLink resin (HaloTEV cleavage) and anti-HA agarose (HA peptide elution); TBSN buffer (50 mM Tris-HCl pH 7.4, 150 mM NaCl, 0.05% NP-40); Coomassie-stained gel

B1: S-tag::HA::PreScission::SPE-11 (protein, UniProt P54217 1-299)
chain: MSDEEIDISTALNNKTTPKKKSLKRNSNSQEGYESPEEREIVYPSVFGAIGTPMAKSDNAKEWDEWKEKERKKDKAEWKRYLRSKWDMTQGHLPLVSDSEFLKGRKEHKEYNSKARMDILDGLDEVNEGFFNCGKGAAMNIRYNDKNVSKKGAKKFVATVETAMKKAGNPTMEQMMTDDLDEDEARAEAEWERQREQRKLASRAYDAAMDEREDDAKYVPWDEYCQEMEELGKELKIGEKHYKKWLEKKMDENKVTHKFNAYQLDLKCLDEDAFSNKKSLKSVVRNVQKFYRKMREPKK
  binding: binds
